PMC11254415
Results are given in words; binding and its absence hold for the method and conditions named. In cells and extracts the contact can be indirect. These calls come from enrichment with a bait or labelling near it, and not all partners need be listed. Tags and fused reporters may be left off the sequences shown.

Protein sequences, listed by entry. Tags and fused reporters are not part of them. Residues count along the entry.
UniProt P06756, residues 31-1048: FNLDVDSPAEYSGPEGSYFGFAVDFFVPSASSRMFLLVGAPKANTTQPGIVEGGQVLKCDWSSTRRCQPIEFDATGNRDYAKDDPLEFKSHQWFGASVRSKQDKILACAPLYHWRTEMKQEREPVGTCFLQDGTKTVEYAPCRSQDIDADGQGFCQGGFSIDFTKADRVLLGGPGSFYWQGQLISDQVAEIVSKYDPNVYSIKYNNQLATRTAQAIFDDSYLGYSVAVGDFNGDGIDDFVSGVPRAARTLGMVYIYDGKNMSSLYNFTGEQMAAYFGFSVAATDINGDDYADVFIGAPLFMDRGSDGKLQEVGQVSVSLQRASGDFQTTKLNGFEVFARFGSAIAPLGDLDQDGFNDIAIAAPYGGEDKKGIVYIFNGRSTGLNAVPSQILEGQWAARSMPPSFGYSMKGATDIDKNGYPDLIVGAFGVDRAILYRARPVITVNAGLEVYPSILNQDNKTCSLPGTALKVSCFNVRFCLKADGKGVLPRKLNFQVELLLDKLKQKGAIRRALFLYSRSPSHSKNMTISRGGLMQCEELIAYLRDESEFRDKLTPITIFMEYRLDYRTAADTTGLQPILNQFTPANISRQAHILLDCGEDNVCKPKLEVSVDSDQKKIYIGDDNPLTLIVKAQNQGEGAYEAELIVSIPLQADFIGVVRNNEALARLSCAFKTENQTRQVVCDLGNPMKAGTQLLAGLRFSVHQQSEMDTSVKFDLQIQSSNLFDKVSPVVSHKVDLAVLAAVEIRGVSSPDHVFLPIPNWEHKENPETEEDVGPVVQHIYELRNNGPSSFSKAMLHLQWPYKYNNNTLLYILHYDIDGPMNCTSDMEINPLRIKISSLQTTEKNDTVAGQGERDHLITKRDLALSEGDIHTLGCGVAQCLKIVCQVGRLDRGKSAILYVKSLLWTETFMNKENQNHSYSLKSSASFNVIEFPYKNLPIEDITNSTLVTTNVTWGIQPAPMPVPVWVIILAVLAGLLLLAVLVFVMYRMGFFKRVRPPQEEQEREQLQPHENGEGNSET

Molecular target: T1, Flag-tagged ANGPTL4 (ANGPTL4-Flag) (human) (UniProt Q9BY76)
T1 sequence: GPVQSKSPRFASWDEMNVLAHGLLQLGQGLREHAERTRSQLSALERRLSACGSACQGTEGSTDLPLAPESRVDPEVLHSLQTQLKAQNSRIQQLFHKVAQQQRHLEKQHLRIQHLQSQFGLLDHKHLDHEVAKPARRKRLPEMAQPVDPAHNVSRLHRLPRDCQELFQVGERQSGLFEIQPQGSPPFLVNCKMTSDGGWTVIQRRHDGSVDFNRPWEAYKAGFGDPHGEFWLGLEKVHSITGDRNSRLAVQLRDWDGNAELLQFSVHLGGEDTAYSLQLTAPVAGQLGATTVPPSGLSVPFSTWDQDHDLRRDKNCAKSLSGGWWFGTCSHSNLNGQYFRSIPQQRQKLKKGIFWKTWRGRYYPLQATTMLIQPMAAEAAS
Experiment: affinity purification with mass spectrometry; AGS cells expressing ANGPTL4-Flag, IP with anti-Flag Abs, in-gel digestion, LC-MS/MS (Q Exactive HF)

binding: binds
Substance: integrin αV (ITGAV) (from UniProt P06756 31-1048) (receptor)
